Literature values as cited in PMC10041537, “Molecular origins of mutational spectra produced by the environmental carcinogen N-nitrosodimethylamine and SN1 chemotherapeutic agents” (NAR Cancer, 2023).

Tested on: DNA
Parameters: method as in PMID 2195323, PMID 7251633
Conditions: cited from earlier work

## C[N+]#N [methyldiazonium ion]
  3-methyladenine (m3A), share of all DNA adducts: ~3%
  7-methylguanine (m7G), share of all DNA adducts: ~70%
  O^6-methylguanine (m6G), share of all DNA adducts: ~7%
  methyl phosphotriester, share of all DNA adducts: ~15%
